No constants are given. Whether binding was seen depends on the method and setting. Binding can be weak; no strength is given.
Key:
[1] = target: recombinant AIM-A1 protein (human VWF residues 1238-1493) (human); test: biolayer interferometry (FIG. 3)
[2] = target: recombinant AIM-A1 protein (human VWF residues 1238-1493) (human); test: biolayer interferometry on AIM-A1 protein, series 4, 8, 16, 32, 63, 125, 250 nM
[3] = target: recombinant AIM-A1 protein (human VWF residues 1238-1493) (human); test: biolayer interferometry

Measured: binding

B1: R6Nd4 (VHH)
VHH: QVQLVESGGGLVQAGGSLRLSCAASGSRFSSRPMAWFRQTPGKEHDFVAYINWSGGSKYYADSVKGRFTISRDNAKNTVYLQMDSLKPEDTSIYYCAAGRAYSAVAVTPRGYDFWGQGTQVTVSS
binds: all assays above

B2: R6Nd6 (VHH)
VHH: QVQLVESGGGLVQAGGSLRLSCATSGIIFSVYHMGWFRQTPGKERELVALISLSGSSTDYADSVKGRFAISRDNAKDTVFLQMNTLKPEDTAVYYCAARLGSSWKYWGQGTQVTVSS
binds: all assays above
